Laboratory results reported in the supplement of paper PMC7661543.
± gives the standard deviation of the averaged measurements. The effect of the compound repeats well; differences between the knockouts mostly do not.

System: SKBR3
Assay: relative cell number vs DMSO control (72 h) (% of DMSO); higher = less growth inhibition (more cells)
Method: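 QMAP-Seq: a pool of 5 breast cancer cell lines (ZR-75-1, SKBR3, HCC-38, MDA-MB-231, BT-20), each carrying 12 doxycycline-inducible Cas9 sgRNA perturbations (11 knockouts plus non-targeting sgNT), was treated with compounds for 72 h at four 10-fold doses (10 nM-10 uM or 1 nM-1 uM range). Barcodes were amplified and sequenced, and cell number was interpolated from 293T spike-in standard curves. The result is expressed as % of the median of DMSO wells. Two biological replicates.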

Cc1ccc(C(=O)Cn2c3c(sc2=N)CCCC3)cc1 [PifithrinAlpha]
Conditions	relative cell number
sgRNA knockout: sgATF3, 10 nM	107 ± 15
sgRNA knockout: sgATF3, 100 nM	107 ± 20
sgRNA knockout: sgATF3, 1000 nM	90.6 ± 5.3
sgRNA knockout: sgATF3, 10000 nM	97.9 ± 8.8
sgRNA knockout: sgATF4, 10 nM	78.9 ± 8.5
sgRNA knockout: sgATF4, 100 nM	105 ± 11
sgRNA knockout: sgATF4, 1000 nM	81.2 ± 16
sgRNA knockout: sgATF4, 10000 nM	85.9 ± 1.9
sgRNA knockout: sgATF6, 10 nM	91.5 ± 9.1
sgRNA knockout: sgATF6, 100 nM	71.7 ± 1
sgRNA knockout: sgATF6, 1000 nM	92.8 ± 6.9
sgRNA knockout: sgATF6, 10000 nM	67.4 ± 0.69
sgRNA knockout: sgATG7, 10 nM	109 ± 8.8
sgRNA knockout: sgATG7, 100 nM	85.1 ± 23
sgRNA knockout: sgATG7, 1000 nM	102 ± 18
sgRNA knockout: sgATG7, 10000 nM	92.7 ± 12
sgRNA knockout: sgERN1, 10 nM	103 ± 3.3
sgRNA knockout: sgERN1, 100 nM	86.2 ± 16
sgRNA knockout: sgERN1, 1000 nM	101 ± 12
sgRNA knockout: sgERN1, 10000 nM	77.8 ± 31
sgRNA knockout: sgHSF1, 10 nM	110 ± 7.4
sgRNA knockout: sgHSF1, 100 nM	86.4 ± 2.9
sgRNA knockout: sgHSF1, 1000 nM	79 ± 4
sgRNA knockout: sgHSF1, 10000 nM	83.9 ± 5
sgRNA knockout: sgHSF2, 10 nM	96.8 ± 7.3
sgRNA knockout: sgHSF2, 100 nM	94.2 ± 23
sgRNA knockout: sgHSF2, 1000 nM	81.5 ± 10
sgRNA knockout: sgHSF2, 10000 nM	78.1 ± 7
sgRNA knockout: sgKEAP1, 10 nM	87.3 ± 8.2
sgRNA knockout: sgKEAP1, 100 nM	103 ± 3.9
sgRNA knockout: sgKEAP1, 1000 nM	88 ± 11
sgRNA knockout: sgKEAP1, 10000 nM	85.5 ± 2.3
sgRNA knockout: sgNFE2L2, 10 nM	83.1 ± 13
sgRNA knockout: sgNFE2L2, 100 nM	80.4 ± 6.5
sgRNA knockout: sgNFE2L2, 1000 nM	102 ± 8.1
sgRNA knockout: sgNFE2L2, 10000 nM	84.1 ± 17
sgRNA knockout: sgSLC35F2, 10 nM	104 ± 19
sgRNA knockout: sgSLC35F2, 100 nM	94.9 ± 17
sgRNA knockout: sgSLC35F2, 1000 nM	90 ± 6.5
sgRNA knockout: sgSLC35F2, 10000 nM	76 ± 28
sgRNA knockout: sgXBP1, 10 nM	119 ± 15
sgRNA knockout: sgXBP1, 100 nM	82.5 ± 19
sgRNA knockout: sgXBP1, 1000 nM	94.2 ± 5.9
sgRNA knockout: sgXBP1, 10000 nM	77.5 ± 3

COc1cc(OC)c(/C=C/S(=O)(=O)Cc2ccc(OC)c(NCC(=O)O)c2)c(OC)c1 [Rigosertib]
Conditions	relative cell number
sgRNA knockout: sgATF3, 10 nM	92.4 ± 7.7
sgRNA knockout: sgATF3, 100 nM	14.7 ± 6.6
sgRNA knockout: sgATF3, 1000 nM	13.4 ± 5.8
sgRNA knockout: sgATF3, 10000 nM	12.6 ± 4.1
sgRNA knockout: sgATF4, 10 nM	88 ± 26
sgRNA knockout: sgATF4, 100 nM	14.2 ± 2.3
sgRNA knockout: sgATF4, 1000 nM	11.5 ± 2.8
sgRNA knockout: sgATF4, 10000 nM	13.82 ± 0.1
sgRNA knockout: sgATF6, 10 nM	84.4 ± 25
sgRNA knockout: sgATF6, 100 nM	13.8 ± 0.89
sgRNA knockout: sgATF6, 1000 nM	10.5 ± 2.4
sgRNA knockout: sgATF6, 10000 nM	9.03 ± 0.69
sgRNA knockout: sgATG7, 10 nM	115 ± 21
sgRNA knockout: sgATG7, 100 nM	16.08 ± 0.12
sgRNA knockout: sgATG7, 1000 nM	7.19 ± 1.3
sgRNA knockout: sgATG7, 10000 nM	13.4 ± 7.7
sgRNA knockout: sgERN1, 10 nM	92.8 ± 3.5
sgRNA knockout: sgERN1, 100 nM	13 ± 1.7
sgRNA knockout: sgERN1, 1000 nM	11.2 ± 2.1
sgRNA knockout: sgERN1, 10000 nM	9.96 ± 0.47
sgRNA knockout: sgHSF1, 10 nM	77.2 ± 11
sgRNA knockout: sgHSF1, 100 nM	19 ± 4.9
sgRNA knockout: sgHSF1, 1000 nM	8.37 ± 0.6
sgRNA knockout: sgHSF1, 10000 nM	13.2 ± 4.9
sgRNA knockout: sgHSF2, 10 nM	96.9 ± 12
sgRNA knockout: sgHSF2, 100 nM	19.7 ± 2.1
sgRNA knockout: sgHSF2, 1000 nM	13.4 ± 6.5
sgRNA knockout: sgHSF2, 10000 nM	13.2 ± 4.2
sgRNA knockout: sgKEAP1, 10 nM	85.3 ± 31
sgRNA knockout: sgKEAP1, 100 nM	15.2 ± 0.46
sgRNA knockout: sgKEAP1, 1000 nM	13.1 ± 4.3
sgRNA knockout: sgKEAP1, 10000 nM	12.4 ± 2.3
sgRNA knockout: sgNFE2L2, 10 nM	99.6 ± 11
sgRNA knockout: sgNFE2L2, 100 nM	15.8 ± 2.6
sgRNA knockout: sgNFE2L2, 1000 nM	9.943 ± 0.041
sgRNA knockout: sgNFE2L2, 10000 nM	11.8 ± 4.7
sgRNA knockout: sgSLC35F2, 10 nM	83.3 ± 3
sgRNA knockout: sgSLC35F2, 100 nM	15.9 ± 1.9
sgRNA knockout: sgSLC35F2, 1000 nM	12.1 ± 7.2
sgRNA knockout: sgSLC35F2, 10000 nM	12.15 ± 0.075
sgRNA knockout: sgXBP1, 10 nM	78.9 ± 27
sgRNA knockout: sgXBP1, 100 nM	9.14 ± 2.8
sgRNA knockout: sgXBP1, 1000 nM	9 ± 1.9
sgRNA knockout: sgXBP1, 10000 nM	13.8 ± 2.1

CCc1c2c(nc3ccc(O)cc13)-c1cc3c(c(=O)n1C2)COC(=O)[C@]3(O)CC [SN38]
Conditions	relative cell number
sgRNA knockout: sgATF3, 1 nM	90.9 ± 37
sgRNA knockout: sgATF3, 10 nM	54.5 ± 17
sgRNA knockout: sgATF3, 100 nM	16.5 ± 3.8
sgRNA knockout: sgATF3, 1000 nM	15 ± 2.1
sgRNA knockout: sgATF4, 1 nM	91.4 ± 17
sgRNA knockout: sgATF4, 10 nM	58.8 ± 12
sgRNA knockout: sgATF4, 100 nM	23.5 ± 0.96
sgRNA knockout: sgATF4, 1000 nM	17.25 ± 0.026
sgRNA knockout: sgATF6, 1 nM	104 ± 4.1
sgRNA knockout: sgATF6, 10 nM	51.8 ± 23
sgRNA knockout: sgATF6, 100 nM	23.5 ± 4.1
sgRNA knockout: sgATF6, 1000 nM	20.4 ± 3.8
sgRNA knockout: sgATG7, 1 nM	104 ± 44
sgRNA knockout: sgATG7, 10 nM	55.4 ± 7.5
sgRNA knockout: sgATG7, 100 nM	20.7 ± 2.5
sgRNA knockout: sgATG7, 1000 nM	15.1 ± 1.6
sgRNA knockout: sgERN1, 1 nM	83.5 ± 3.3
sgRNA knockout: sgERN1, 10 nM	51 ± 6.8
sgRNA knockout: sgERN1, 100 nM	22.9 ± 1.2
sgRNA knockout: sgERN1, 1000 nM	19.5 ± 2.2
sgRNA knockout: sgHSF1, 1 nM	85.3 ± 8.3
sgRNA knockout: sgHSF1, 10 nM	41.3 ± 13
sgRNA knockout: sgHSF1, 100 nM	24.9 ± 2.8
sgRNA knockout: sgHSF1, 1000 nM	21.6 ± 5.2
sgRNA knockout: sgHSF2, 1 nM	101 ± 9.6
sgRNA knockout: sgHSF2, 10 nM	52.6 ± 0.64
sgRNA knockout: sgHSF2, 100 nM	27.4 ± 4.5
sgRNA knockout: sgHSF2, 1000 nM	18.5 ± 2.8
sgRNA knockout: sgKEAP1, 1 nM	78.8 ± 2.7
sgRNA knockout: sgKEAP1, 10 nM	43.1 ± 10
sgRNA knockout: sgKEAP1, 100 nM	29.81 ± 0.24
sgRNA knockout: sgKEAP1, 1000 nM	18.3 ± 1.6
sgRNA knockout: sgNFE2L2, 1 nM	93.1 ± 5.2
sgRNA knockout: sgNFE2L2, 10 nM	39.5 ± 7.7
sgRNA knockout: sgNFE2L2, 100 nM	24 ± 9.1
sgRNA knockout: sgNFE2L2, 1000 nM	24.8 ± 0.36
sgRNA knockout: sgSLC35F2, 1 nM	79.9 ± 1.9
sgRNA knockout: sgSLC35F2, 10 nM	40.6 ± 6.8
sgRNA knockout: sgSLC35F2, 100 nM	20.2 ± 0.54
sgRNA knockout: sgSLC35F2, 1000 nM	18.8 ± 8.5
sgRNA knockout: sgXBP1, 1 nM	109 ± 3
sgRNA knockout: sgXBP1, 10 nM	41.8 ± 1.6
sgRNA knockout: sgXBP1, 100 nM	19.1 ± 14
sgRNA knockout: sgXBP1, 1000 nM	15.4 ± 0.5
